The values that follow come from patent US20190125888A1, “TARGETED CONJUGATES AND PARTICLES AND FORMULATIONS THEREOF” (priority 2015, published 2019).

Protein sequences, listed by entry. Tags and fused reporters are not part of them.
UniProt P30874, whole entry: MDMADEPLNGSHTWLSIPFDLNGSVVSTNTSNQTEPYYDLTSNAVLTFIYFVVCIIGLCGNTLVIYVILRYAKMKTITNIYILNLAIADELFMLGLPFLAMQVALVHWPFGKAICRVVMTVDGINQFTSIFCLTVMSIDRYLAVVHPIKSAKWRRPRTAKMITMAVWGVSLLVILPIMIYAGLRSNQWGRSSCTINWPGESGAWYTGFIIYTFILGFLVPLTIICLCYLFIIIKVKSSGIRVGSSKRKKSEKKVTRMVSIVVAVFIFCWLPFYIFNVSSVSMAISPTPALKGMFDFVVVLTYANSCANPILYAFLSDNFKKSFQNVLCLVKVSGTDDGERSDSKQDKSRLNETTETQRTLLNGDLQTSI

Structures are written as SMILES. pIC50, pKi: −log10 of the molar value. Read-outs that look alike come from different tables or passages of the source. The structures given here were assigned with low confidence; some may be wrong.

Data set [1] has as its system NCI-H524 (ATCC) human lung cancer cells. Kind of data set: Inhibition of cell proliferation, CellTiter Glo, with and without octreotide competition. Format: cell-based. As to the method: FIG. 1 is a graph of various conjugates represented as bars and showing on the Y-axis their activity in an H524 proliferation assay with and without competition by octreotide. […] This illustrates the suprprising finding that only maytansinoid conjugates show activity that is dependent on the receptor.
Conjugates were assessed in an in vitro assay evaluating inhibition of cell proliferation. NCI-H524 (ATCC) human lung cancer cells were plated in 96 well, V-bottomed plates (Costar) at a concentration of 5,000 cells/well and 24 hours later were treated with compound for 6 hours and further incubated 66 hours. Compound starting dose was 20 μM and three fold serial dilutions were done for a total of ten points. After 6 hours of treatment, cells were spun down, the drug containing media was removed, and fresh complete medium was added and used to resuspend the cells, which were spun again. […] Proliferation was measured using CellTiter Glo reagent using the standard protocol (Promega) and a Glomax multi+detection system (Promega). Percent proliferation inhibition was calculated using the following formula: % inhibition=(control-treatment)/control*100. […]
Conjugates were tested for their activity dependence on the somatostatin receptor. […] Proliferation IC50 values of the conjugates were measured. Proliferation IC50 values of the conjugates without octreotide competition were also measured. […]

The nature of data set [2]: Ligand charge of maytansinoid conjugates. In kind it is physicochemical.
For data set [3], the target named is human SSTR2 (Homo sapiens, UniProt P30874). The experiment in a line: Radioligand-receptor binding assay, [125I] somatostatin, membranes from SSTR2 expressing CHO-K1 cells. The following applies: read-out: SSTR2 Ki; [125I] somatostatin 0.03 nM, four hour incubation, Cheng and Prusoff.

As usually defined, the pIC50 is the IC50 on a negative log10 scale, so that one unit is a factor of ten. In general, pKi refers to the Ki on a negative log10 scale, so that one unit is a factor of ten. As for `CCCCCCNC(=O)[C@@H](NC(=O)[C@@H]1CSSC[C@H](NC(=O)[C@@H](Cc2ccccc2)NCCCSSCCC(=O)N(C)[C@@H](C)C(=O)O[C@@H]2CC(=O)N(C)c3cc(cc(OC)c3Cl)C/C(C)=C/C=C/[C@@H](OC)[C@@]3(O)C[C@H](OC(=O)N3)[C@@H](C)[C@@H]3O[C@@]23C)C(=O)N[C@@H](Cc2ccc(O)cc2)C(=O)N[C@H](Cc2c[nH]c3ccccc23)C(=O)N[C@@H](CCCCN)C(=O)N[C@@H]([C@@H](C)O)C(=O)N1)[C@@H](C)O`, the pIC50 in data set [1] (read-out: H524 IC50 6 h, 6 hours treatment, further 66 hours incubation) is 7.77; in data set [1] (read-out: H524 IC50 with 100 μM octreotide 6 h, with 100 μM octreotide competition, 6 h treatment), 6.68. Besides, the Ligand charge result in data set [2] was “+2”. Further, the pKi in data set [3] is 9.82.
